Data published in PubChem BioAssay AID1347076 (National Center for Advancing Translational Sciences (NCATS), 2019).
The whole screen tested about 400,000 compounds, of which about 13,000 (3.2%) were called active. The shares of active, inactive and inconclusive entries below differ from those in the screen. Calls come from the whole dose curve; as a rule, active = well fitted cell-killing curve with a large enough effect; inconclusive = small, poorly fitted or top-dose-only effect, or effect the other way; inactive = flat fitted curve, though single readings scatter. Potencies of inconclusive entries are doubtful fits and often do not repeat.

assay: qHTS assay for MDR1-selective chemotherapeutics: Primary screen using the drug-selected MDR subline cells KB-V1; conditions: KB-V1 MDR cells viability, CellTiter-Glo, 72 h; activity change, negative = cytotoxicity: at 46.1 µM (top of the series); note: nearly all actives have a fitted effect of over 60% in size
Source text: A prime difficulty in effectively treating cancer is the development of cellular resistance to multiple structurally unrelated anticancer drugs, a phenomenon known as multidrug resistance (MDR). […] Numerous strategies to overcome P-gp-mediated MDR have been explored, including the design of drugs that evade recognition and efflux, and development of inhibitors to block efflux and restore drug accumulation. […] An alternative approach is to exploit resistance by identifying drugs that target MDR cells over the non-resistant parental cells from which they were selected. […] The development of MDR1-selective agents represents a new strategy for resolving multidrug resistance, as it remains a long-standing clinical challenge for cancer chemotherapy.
Our goal is to identify compounds that selectively kill P-gp-expressing MDR cells. We will identify MDR1-selective compounds by comparing toxicity of compounds in the screening library against parental, drug-naive (KB-3-1) adenocarcinoma cells as well as their drug-selected MDR sub-line (KB-V1). The differential toxicity of compounds against these two cell lines will be used to identify MDR1-selective compounds, whose cytotoxicity is potentiated, rather than diminished, by P-gp expression. This assay will be utilized to conduct a quantitative high-throughput screen (qHTS) in collaboration with the NIH Chemical Genomics Center to identify selective agents, and probe hits arising from the screen will be validated using secondary assays and characterized through a well-established follow-up research program. This screen was run against the entire NCGC library collection of about 400,000 compounds.
NIH Molecular Libraries Probe Production Network [MLPCN]
NIH Chemical Genomics Center [NCGC]
PI: Michael Gottesman, National Cancer Institute, NIH
Briefly, 5 microL of media containing either KB-V1 cells (columns 1-2, 4-48) are dispensed into Greiner white, treated solid-bottom 1536-well assay plates (media-only control is added to column 3). Compounds are then transferred via Kalypsys pin tool equipped with 1536-pin array (10 nL slotted pins, V&P Scientific, San Diego, CA). Following addition of compound, the plates are incubated at 37 degrees C for 72 hours. CellTiter-Glo (2.5 µL/well) is then added, and the plates are read in a ViewLux reader (Perkin-Elmer, clear luminescence filter, 1 second exposure, 1x binning) following a 10 minute incubation. All cells are dispensed in DMEM phenol-red free media containing 10% FBS.
Library plates were screened starting from the lowest and proceeding to the highest concentration. Vehicle-only plates, with DMSO being pin-transferred to columns 5-48, will be inserted uniformly at the beginning and the end of each library in order to monitor and record any shifts in the background, which can be affected by reagent dispensers or loss in enzyme activity over time. Screening data will be corrected, normalized, and concentration-effect relationships will be derived by using publicly-available NCGC, NCATS curve fitting algorithms (http://ncgc.nih.gov/pub/openhts).
% is set by controls: 0 for no effect and ±100 for the full control effect; potency is the fitted concentration of half-maximal effect.

SMILES	Potency	activity change, negative = cytotoxicity
CCCN(CCC)C(=S)Nc1cc(C(=O)OC)ccc1C(=O)OC	active: 20.6 µM	–
COCOCCn1cc(CN2CCS(=O)(=O)N(Cc3ccc(-c4cccc(CO)c4)cc3)C(C)C2=O)nn1 (centres undefined)	–	inactive: -4.42%
CCCCCCCCN1C(=O)[C@H](CC(=O)NCc2ccccc2)C[C@@]2(C(=O)OC)CC(C)(C)CC=C12	active: 18.4 µM	–
COc1ccc(C(=O)c2c(C)c3ccccc3n2CC(O)CNC(C)C)cc1 (centres undefined)	inconclusive: 20.6 µM [cytotoxic, single point]	–
Clc1ccc(Cn2c(-c3cccnc3Cl)nc3ccccc32)c(Cl)c1	active: 23.1 µM	–
COc1ccccc1C/C(N)=N/OC(=O)COc1ccc(C)cc1	inconclusive: 29.1 µM [rising, single point]	–
CCCCn1c(=O)[nH]c(=O)c2c1nc(-c1ccc([N+](=O)[O-])cc1)n2CC	inconclusive: 18.4 µM [cytotoxic, single point]	–
CCN(CC(=O)Nc1c(F)cccc1F)C(=O)c1ccc(S(=O)(=O)N2CCCCCC2)cc1	inconclusive: 9.2 µM [cytotoxic, partial curve]	–
O=C(CP(=O)(c1ccccc1)c1ccccc1)N/N=C/c1cc(Br)cc(Br)c1O	inconclusive: 23.1 µM [cytotoxic, single point]	–
Cc1cc2cc(CN(CCCN3CCOCC3)C(=O)NC3CCCCC3)c(=O)[nH]c2cc1C	inconclusive: 20.6 µM [cytotoxic, partial curve]	–
Cc1cc(C)c(S(=O)(=O)Nc2ccc(-c3cn4ccccc4n3)cc2)c(C)c1	inconclusive: 18.4 µM [cytotoxic, single point]	–
Cc1ccc(N2C(=O)N(CC(=O)Nc3cccc(Cl)c3)C(=O)C2C)cc1 (centres undefined)	inconclusive: 16.4 µM [cytotoxic, single point]	–
Cc1c(NS(=O)(=O)c2ccc3[nH]c(=O)[nH]c3c2)c(=O)n(-c2ccccc2)n1C	inconclusive: 20.6 µM [rising, partial curve, poor fit]	–
CN(C(=O)COC(=O)c1cccc(S(=O)(=O)N2CCCCC2)c1)C1CCS(=O)(=O)C1 (centres undefined)	–	inactive: 10.2%
COc1cc(OC)cc(C2=Cc3ccc(OC)cc3C(CC(C)=O)N2c2ccc(C#CC3(O)CCCCC3)cc2)c1 (centres undefined)	–	inactive: 21.1%
O=C1OC(c2ccc(Br)cc2)=N/C1=C\c1ccco1	–	inactive: 0%
Cc1ccc(OCCn2cc(C#N)c3ccccc32)cc1	inconclusive: 29.1 µM [cytotoxic, single point]	–
Cc1ccc(NC(=O)Cn2cc(C=O)c3ccccc32)cc1	–	inactive: 0%
Cc1ccc(C(C(=O)NCc2ccccc2)N(Cc2ccco2)C(=O)c2snc(C(N)=O)c2N)o1 (centres undefined)	inconclusive: 20.6 µM [cytotoxic, single point]	–
CCOc1ccccc1C(=O)N(Cc1cc(OC)c(OC)c(OC)c1)c1ccccn1	inconclusive: 16.4 µM [rising, single point]	–
CCC(C(=O)NC1CCCC1)N(Cc1cccs1)C(=O)Cn1nnc(-c2ccc(OC)c(OC)c2)n1 (centres undefined)	–	inactive: 0.543%
N#Cc1nc(COc2cccc(Cl)c2)oc1NCCc1ccccc1	–	inactive: 0.842%
COc1ccc2c(c1OC)C(=O)OC2Nc1nc(-c2ccccc2)cs1 (centres undefined)	inconclusive: 20.6 µM [cytotoxic, single point]	–

Single records (already shown). Values in the order: Potency | activity change, negative = cytotoxicity
COCOCCn1cc(CN2CCS(=O)(=O)N(Cc3ccc(-c4cccc(CO)c4)cc3)C(C)C2=O)nn1 (centres undefined) is entered as – | inactive: -4.42%
CCCCCCCCN1C(=O)[C@H](CC(=O)NCc2ccccc2)C[C@@]2(C(=O)OC)CC(C)(C)CC=C12 is entered as active: 18.4 µM | –
O=C1OC(c2ccc(Br)cc2)=N/C1=C\c1ccco1 is entered as – | inactive: 0%

2 entries picked at random from the list so far, as already listed:
SMILES	Potency	activity change, negative = cytotoxicity
COc1ccc2c(c1OC)C(=O)OC2Nc1nc(-c2ccccc2)cs1 (centres undefined)	inconclusive: 20.6 µM [cytotoxic, single point]	–
Cc1ccc(N2C(=O)N(CC(=O)Nc3cccc(Cl)c3)C(=O)C2C)cc1 (centres undefined)	inconclusive: 16.4 µM [cytotoxic, single point]	–

(listing goes on)

SMILES	Potency	activity change, negative = cytotoxicity
O=C(O)/C=C/C(=O)Nc1ccccc1-c1ccccc1NC(=O)/C=C/C(=O)O	inconclusive: 7.31 µM [rising, partial curve]	–
CN1CCN(c2nc(-c3cccc([N+](=O)[O-])c3)nc3ccccc23)CC1	–	inactive: 0%
CNC(=O)C1CC(=O)N(CCc2ccc(OC)c(OC)c2)C(=Nc2ccc(F)cc2)S1 (centres undefined)	–	inactive: -7.11%
Cc1ccc(Nc2sc(C(=O)c3ccccc3)c(N)c2C(=O)Nc2ccc(Cl)cc2)cc1	–	inactive: 0%
CN(/C=C/C(=C/C=[N+](C)c1ccccc1)OCCCS(=O)(=O)[O-])c1ccccc1	inconclusive: 23.1 µM [rising, single point]	–
CN(C(=O)CSc1nc2ccccc2c(=O)n1-c1ccc(F)cc1)C1CCS(=O)(=O)C1 (centres undefined)	inconclusive: 29.1 µM [rising, single point]	–
O=C(c1cc(COc2cccc3cnccc23)on1)N1CCCC(CCCO)C1 (centres undefined)	inconclusive: 20.6 µM [cytotoxic, single point]	–
COc1cc(C)ccc1OCc1cc(C(=O)NC(c2ccccn2)C(F)(F)F)no1 (centres undefined)	inconclusive: 13 µM [cytotoxic, partial curve]	–
Cc1cccc(N(C(=O)CNC(=O)c2cccs2)C(C(=O)NC2CCCC2)c2cccnc2)c1 (centres undefined)	inconclusive: 32.6 µM [cytotoxic, single point]	–
CCc1ccccc1OCC(=O)Nc1ccc(F)c(S(=O)(=O)N2CCOCC2)c1	inconclusive: 7.31 µM [cytotoxic, partial curve, poor fit]	–
CCOCCCNC(=O)c1cc(Sc2cccc(Cl)c2)nc2ccccc12	inconclusive: 29.1 µM [cytotoxic, single point]	–
C[C@@H]1CN([C@@H](C)CO)C(=O)c2cc(NS(=O)(=O)c3cccs3)ccc2O[C@H]1CN(C)Cc1ccc(C(F)(F)F)cc1	–	inactive: 0%
CC(C)(C)c1ccc(C(=O)NCCC(=O)NCc2ccco2)cc1	–	inactive: -16.8%
Cc1cc(NC(=O)c2cc(-c3ccncc3)nc3ccccc23)ccc1Br	active: 8.2 µM	–
Cc1cccc(NC(=O)c2ccccn2)c1C	–	inactive: -3.51%
C=CCOc1cccn2c(N(C=O)Cc3ccccc3)c(CC)nc12	–	inactive: 0.0608%
Cc1ccsc1C(=O)OCC(=O)Nc1sccc1C(N)=O	active: 18.4 µM	–
CCNC(=O)Nc1cc2nc(C)n(Cc3ccc(Br)cc3)c2nc1C	inconclusive: 23.1 µM [cytotoxic, single point]	–
Cc1ccc(S(=O)(=O)N2CCC(C(=O)N/N=C/c3ccccc3[N+](=O)[O-])CC2)cc1	active: 13 µM	–
Cc1ccccc1C(=O)N/N=C1/SCC(=O)N1Cc1ccc2c(c1)OCO2	–	inactive: 0%
COC(=O)C1(C(=O)OC)C[C@H](c2ccc(OC)cc2)N(Cc2ccccc2OC)[C@@H]1c1ccccc1	inconclusive: 9.2 µM [cytotoxic, partial curve]	–
O=C(c1ccc(Cl)cc1)C(CN1CCCCC1)c1ccccc1 (centres undefined)	active: 20.6 µM	–
CC1CCCN(S(=O)(=O)c2cccc(C(=O)OCC(=O)N(C)Cc3c(F)cccc3Cl)c2)C1 (centres undefined)	inconclusive: 23.1 µM [cytotoxic, partial curve]	–

SMILES	Potency	activity change, negative = cytotoxicity
Cc1ccc(CC(=O)Nc2ccc3c(c2)N(C)C(=O)c2ccccc2S3)cc1	active: 18.4 µM	–
Cc1cc(C)c(C#N)c(Oc2ccccc2Br)n1	inconclusive: 0.0259 µM [rising, full curve, poor fit]	–
COc1ccc2ncccc2c1Cc1c(OC)ccc2ncccc12	inconclusive: 18.4 µM [cytotoxic, single point]	–
CCCCNC(=O)c1nc(-c2cc3ccccc3[nH]2)oc1-c1cccc(C(F)(F)F)c1	inconclusive: 14.6 µM [cytotoxic, partial curve]	–
O=C(C=Cc1cccc(Cl)c1)c1ccccc1	inconclusive: 29.1 µM [cytotoxic, single point]	–
c1ccc(N2CCN(c3nc(NCc4ccco4)c4ccccc4n3)CC2)cc1	active: 11.6 µM	–
COc1ccc2c(c1)c(CC(=O)Nc1ccc(C(C)=O)cc1)c(C)n2C(=O)c1ccc(Cl)cc1	inconclusive: 18.4 µM [cytotoxic, single point]	–
COc1ccc(NC(=O)c2oc3ccccc3c2NC(=O)C23CC4CC(CC(C4)C2)C3)c(OC)c1	–	inactive: 11.3%
O=C(CCNC(=O)N1CC(=O)Nc2ccccc21)Nc1cccc(Cl)c1	–	inactive: 1.07%
Cc1ccc(-c2nnc(SCC(=O)N/N=C/c3c(C)nn(-c4ccccc4)c3C)n2-c2ccccc2)cc1	active: 14.6 µM	–
O=c1oc2ccccc2cc1-c1csc(Nc2ccc(O)cc2)n1	inconclusive: 14.6 µM [cytotoxic, partial curve]	–
CCOc1ccc(C(=O)CCC(=O)N(CC)CC(=O)Nc2c(F)cccc2F)cc1	inconclusive: 18.4 µM [cytotoxic, partial curve, poor fit]	–
CC(C)C(=O)Nc1c(O)c2ccccc2[nH]c1=O	inconclusive: 29.1 µM [rising, single point]	–
CCOC(=O)c1cnn(-c2ccc(Cl)cc2)c1C1CCN(C(=O)OC(C)(C)C)CC1	inconclusive: 29.1 µM [cytotoxic, single point]	–
CCc1cccc(CC)c1NC(=O)C(Cc1ccccc1)NS(=O)(=O)c1cccc2nsnc12 (centres undefined)	inconclusive: 11.6 µM [cytotoxic, partial curve]	–
COc1ccc(S(=O)(=O)N2CCN(Cc3cccc(OC)c3)CC2)cc1	inconclusive: 16.4 µM [cytotoxic, single point]	–
CCCc1cc(=O)[nH]c(SC(C)C(=O)Nc2ccc3c(c2)OCCO3)n1 (centres undefined)	–	inconclusive: -70.2%
O=C(N/N=C/c1cc(Br)ccc1O)C(=O)Nc1ccccc1OC(F)(F)C(F)F	inconclusive: 7.94 µM [cytotoxic, partial curve]	–
CC(=O)c1cccc(N2C(=O)C3C4CCC(C4=C(C)C)C3C2=O)c1 (centres undefined)	active: 18.4 µM	–
COC(=O)C1(C)CCc2cc(OC)ccc2C1=O (centres undefined)	–	inactive: 0%
CCCCOCCCNC(=O)C[C@@H]1C[C@@]2(C(=O)OC)CC(C)(C)CC=C2N(Cc2ccc3c(c2)OCO3)C1=O	inconclusive: 8.2 µM [cytotoxic, partial curve]	–
Clc1ccccc1NN(Cc1ccncc1)c1ccccc1Cl	–	inactive: -24.8%
Cc1ccc(CNc2nc3c([nH]2)c(=O)n(C)c(=O)n3C)cc1	inconclusive: 20.6 µM [cytotoxic, single point]	–
